Library screening results

Data taken from ChEMBL document CHEMBL3988442, “University of Dundee, Small-Polar-MMV Screening Library” (2021).

A: 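Whole-cell assay for inhibitors of Mycobacterium tuberculosis growth, labelled Cornell in the record; the read-out is not stated. The concentration is filed as 10 mM, unlikely as a test dose, so the dose is not known. Higher means stronger inhibition (inferred from two other growth screens of the library). Size under these conditions: about 53,000 compounds, about 900 of them at 50% or above in at least one test.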
B: 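Assay on Mycobacterium tuberculosis, filed only as a heat shock assay from Cornell; the read-out is not stated. The concentration is filed as 10 mM, unlikely as a test dose, so the dose is not known. Direction is inferred from retests: higher values go with stronger inhibition. About 69,000 compounds were tested under these conditions; 1.4% (about 930) showed 50% or more at least once.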

Each number is a percent effect as filed. The controls that fix the scale are not given in the record; negative values are as filed. Compounds were drawn at random from those tested, without regard to their results. A dash means the value is not listed here; it may have been measured.

| # | compound | A | B |
|---|---|---|---|
| 1 | `Cc1ccnc(OCC(=O)N2CCC(C(N)=O)CC2)n1` | -28.35 | 7.928 |
| 2 | `CC(=O)N1CCCC1CCc1ccnc(-c2cncnc2)c1` (stereo unspecified) | 56.86 | 15.93 |
| 3 | `NC(=O)C1CCCN(c2ncnc3c2Cc2ccccc2OC3)C1` (stereo unspecified) | -12.22 | -12.1 |
| 4 | `CN(C(=O)c1ccccn1)c1nc2c(s1)CCc1c-2cnn1C` | 9.067 | 15.11 |
| 5 | `Cc1cc(O)ccc1-c1cc(-c2cnn(C)c2C2CC2)c(C#N)c(N)n1` | -17.88 | -6.038 |
| 6 | `O=C1COc2cccc(OCc3ccccn3)c2N1` | 12.39 | 5.831 |
| 7 | `NC(=O)C1CCN(C(=O)NCc2ccccc2-n2cccn2)CC1` | -13.44 | -2.273 |
| 8 | `Cc1nc(C2CCCN(C(=O)Cn3ccccc3=O)C2)no1` (stereo unspecified) | - | -16.63 |
| 9 | `O=C(O)C(F)(F)F.O=C1COC2(CCN(Cc3ccco3)CC2)CN1` | -24.06 | -45.46 |
| 10 | `CC(=O)N1CC2(CCN(c3ccc4ccccc4n3)CC2)CC1C(=O)O` (stereo unspecified) | -47.67 | 21.55 |
| 11 | `O=C(O)C(F)(F)F.O=C(O)C(F)(F)F.[H][C@@]12COC[C@]1([H])[C@@H](OCc1csc(C)n1)CN2CCOC` | -12.27 | -22.51 |
| 12 | `[H][C@@]12CN(S(=O)(=O)c3ccccc3)C[C@]1([H])OCC(=O)N2Cc1ccccc1` | - | -21.48 |
| 13 | `CN(Cc1cn2c(n1)CN(C(=O)N(C)C)CC2)Cc1ccco1` | -17.39 | 13.59 |
| 14 | `CCCn1nnnc1CSc1nccn1CC` | -3.386 | -22.94 |
| 15 | `Nc1ncnc2nc(C3CCN(C(=O)Cc4ccc(F)cc4)C3)ccc12` (stereo unspecified) | 31.85 | 3.377 |
| 16 | `Cc1noc(C)c1C(=O)N1CCC2(CC1)c1nc[nH]c1CCN2C` | 0.6834 | 4.892 |
| 17 | `Cc1ccc(N2CCCC(N(C)Cc3cc(C)on3)C2)nn1` (stereo unspecified) | 3.241 | -7.447 |
| 18 | `O=C(c1cccnc1O)N1CCN(Cc2ccccc2F)CC1` | -27.59 | -6.715 |
| 19 | `Cc1cc(C)n(CC2CCCN2C(=O)c2ccc(N(C)C)nn2)n1` (stereo unspecified) | -12.82 | -16.45 |
| 20 | `COc1ccc(CN(Cc2cnn(C)c2)CC(C)C)cn1` | 2.422 | -25.09 |
| 21 | `O=C1OC2(CCNCC2)CN1CC(=O)N1CCCC1c1nccs1` (stereo unspecified) | - | 13.39 |
| 22 | `CN(C)C(=O)c1cccn1-c1ccc2c(c1)OCCO2` | 8.078 | -1.849 |
| 23 | `Cc1nc(CNC2CCc3nc(C(C)C)nn3C2)oc1C` (stereo unspecified) | -1.977 | 9.494 |
| 24 | `CC(C)NC(=O)[C@@H](NC(=O)N1CCN(c2ccc(Cl)cc2)CC1)C(C)C` | 70.57 | -9.898 |
| 25 | `CNS(=O)(=O)c1cccc(CNc2nccc(C(F)(F)F)n2)c1` | -52.67 | -15.96 |
| 26 | `NC(=O)c1ccc(C2CCCN2C(=O)Cn2nc3ccccc3n2)s1` (stereo unspecified) | -14.22 | -6.486 |
| 27 | `O=C(CCc1cccnc1)N1CCCC(n2cncn2)C1` (stereo unspecified) | 14.1 | -2.233 |
| 28 | `CC(NC(=O)NCCCN1CCCC1=O)c1nncn1C` (stereo unspecified) | - | 4.13 |
| 29 | `COc1cc(I)c(Cl)cc1C(=O)N(C)CC(=O)NC(C)(C)C` | 10.58 | 0.6965 |
| 30 | `CCOCc1cnc2n1CCN(C(=O)Cc1cccs1)C2C` (stereo unspecified) | -17.24 | -15.31 |
| 31 | `CCCc1cc(N(CCOC)CC(F)F)n2ncnc2n1` | - | -22.23 |
| 32 | `CCCS(=O)(=O)N1Cc2nccn2CC(CN2CCCC2)C1.O=C(O)C(F)(F)F` (stereo unspecified) | 22.43 | -20.38 |
| 33 | `CC(NC(=O)OC(C)(C)C)c1nnc(S(=O)(=O)Cc2ccccc2Cl)o1` (stereo unspecified) | 105.8 | 10.13 |
| 34 | `COc1ccc(-c2c(C)nn3c(=N)c(C#N)n[nH]c23)cc1` | 17.15 | -3.605 |
| 35 | `COCCn1cc(NC(=O)C(C)CCc2ccccc2F)ccc1=O` (stereo unspecified) | 8.255 | 12.15 |
| 36 | `CCOc1cc(CNCc2cnc(C)cn2)c(Cl)cc1OC(C)C` | -1.234 | -0.8488 |
| 37 | `CCc1ncc(CN2CCC(Oc3ccccc3OC)CC2)cn1` | 11.14 | -25.92 |
| 38 | `O=C(NCc1ccc(Br)cc1F)C1(O)CCSCC1` | 15.88 | -3.781 |
| 39 | `CNC(=O)[C@@H]1C[C@@H](N)CN1C1CCN(c2ccccc2F)CC1` | 17.28 | 2.785 |
| 40 | `Nc1cc(CCCNC(=O)NC2CCCC2)nn1-c1ccccc1` | 9.402 | -13.68 |
| 41 | `CCc1nc(C2CCCN2C(=O)CCc2ccc3c(c2)OCO3)no1` (stereo unspecified) | 9.882 | 8.056 |
| 42 | `O=C(NC1CCCCC1)c1cc(Br)cnc1N1CCCCC1` | 5.186 | 5.581 |
| 43 | `CCOCC1CN(C(=O)c2cccn2C)Cc2cnn(CC3CC3)c21.O=C(O)C(F)(F)F` (stereo unspecified) | 31.28 | 21.94 |
| 44 | `O=C(CCOc1ccccc1F)NC1CCCN(c2ccccn2)C1` (stereo unspecified) | 1.428 | -0.8911 |
| 45 | `Cc1cc(NC(=O)NCc2cccnc2OC(C)C)n(C)n1` | - | -5.006 |
| 46 | `Cc1cc(-c2nn(C)c(Cl)c2CN2CC[C@H](CO)[C@@H](O)C2)no1` | - | -10.94 |
| 47 | `CC(C)n1cnc2c1C(C(=O)N1CCCC1)N(CC1CC1)CC2.O=C(O)C(F)(F)F` (stereo unspecified) | 15.87 | 4.409 |
| 48 | `COc1c(C)cnc(CN2CCOC(Cn3cncn3)C2)c1C` (stereo unspecified) | - | -9.141 |
| 49 | `O=C(Cn1nc(Br)nc1Br)N1CCCCC1` | 28.63 | 12.84 |
| 50 | `CC(C)c1nc(CCn2cncn2)n(-c2ccc3c(c2)OCCO3)n1` | - | -23.7 |
| 51 | `CCc1n[nH]c(C(=O)NCCn2ccc(C)n2)c1C` | -13.23 | -5.809 |
| 52 | `CCOCC(=O)N1Cc2nnn(C)c2C(COCc2ccccn2)C1.O=C(O)C(F)(F)F` (stereo unspecified) | -9.812 | -8.78 |
| 53 | `CC(=O)Nc1cc2c(cc1C)OCO2` | -5.196 | -18.21 |
| 54 | `O=C1CCCCCN1Cc1cccc(OC(F)F)c1` | -1.254 | -20.23 |
| 55 | `O=C(NCC(O)c1ccsc1)Nc1cccs1` (stereo unspecified) | 98.83 | -10.43 |
| 56 | `Cc1nc(C)c(C)c(N2CCC(NCCOc3ccccc3)CC2)n1` | -15.57 | -0.1996 |
| 57 | `O=C(c1ccco1)N1CCCC2(C1)CN(c1nncs1)CCO2` (stereo unspecified) | -3.476 | 29.2 |
| 58 | `O=C(O)C(F)(F)F.O=C(O)C(F)(F)F.[H][C@@]12CN(Cc3ccco3)C[C@]1([H])[C@H](OC)CCN2Cc1cnn(C)c1` | - | -9.078 |
| 59 | `CN(Cc1cccnc1)C(CO)c1cccc(Br)c1` (stereo unspecified) | 17.59 | 12.18 |